# Measurements taken from PMC8528824.
# Sequences of proteins named here, by UniProt entry; tags and fusion partners are left off. Residues count along the entry.
# UniProt P16066, residues 33-1061: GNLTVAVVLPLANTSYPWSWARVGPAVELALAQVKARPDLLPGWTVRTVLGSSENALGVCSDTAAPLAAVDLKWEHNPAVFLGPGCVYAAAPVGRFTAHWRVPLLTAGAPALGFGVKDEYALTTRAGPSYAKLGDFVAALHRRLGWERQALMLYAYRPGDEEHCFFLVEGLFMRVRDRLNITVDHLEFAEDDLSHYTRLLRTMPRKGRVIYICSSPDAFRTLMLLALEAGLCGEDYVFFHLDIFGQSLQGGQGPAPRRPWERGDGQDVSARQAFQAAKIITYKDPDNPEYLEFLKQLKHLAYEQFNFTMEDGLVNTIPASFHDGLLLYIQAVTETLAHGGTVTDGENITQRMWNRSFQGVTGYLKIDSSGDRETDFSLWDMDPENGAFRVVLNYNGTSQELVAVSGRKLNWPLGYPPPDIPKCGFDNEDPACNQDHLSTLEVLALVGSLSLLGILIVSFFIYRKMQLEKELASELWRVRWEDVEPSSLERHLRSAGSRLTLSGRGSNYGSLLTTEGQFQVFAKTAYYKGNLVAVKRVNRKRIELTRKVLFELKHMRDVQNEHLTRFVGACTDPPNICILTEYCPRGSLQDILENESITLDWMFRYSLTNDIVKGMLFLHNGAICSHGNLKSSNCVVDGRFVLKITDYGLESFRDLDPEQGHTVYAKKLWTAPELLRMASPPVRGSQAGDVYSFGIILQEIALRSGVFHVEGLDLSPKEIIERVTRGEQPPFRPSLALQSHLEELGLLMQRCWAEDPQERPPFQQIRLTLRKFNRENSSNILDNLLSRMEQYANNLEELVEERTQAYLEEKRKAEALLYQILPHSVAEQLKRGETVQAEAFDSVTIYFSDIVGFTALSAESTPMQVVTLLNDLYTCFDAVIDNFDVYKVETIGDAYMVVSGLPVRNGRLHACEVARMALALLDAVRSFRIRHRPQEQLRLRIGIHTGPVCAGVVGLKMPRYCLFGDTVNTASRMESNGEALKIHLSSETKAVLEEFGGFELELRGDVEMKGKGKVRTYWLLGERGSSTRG
# UniProt Q16665: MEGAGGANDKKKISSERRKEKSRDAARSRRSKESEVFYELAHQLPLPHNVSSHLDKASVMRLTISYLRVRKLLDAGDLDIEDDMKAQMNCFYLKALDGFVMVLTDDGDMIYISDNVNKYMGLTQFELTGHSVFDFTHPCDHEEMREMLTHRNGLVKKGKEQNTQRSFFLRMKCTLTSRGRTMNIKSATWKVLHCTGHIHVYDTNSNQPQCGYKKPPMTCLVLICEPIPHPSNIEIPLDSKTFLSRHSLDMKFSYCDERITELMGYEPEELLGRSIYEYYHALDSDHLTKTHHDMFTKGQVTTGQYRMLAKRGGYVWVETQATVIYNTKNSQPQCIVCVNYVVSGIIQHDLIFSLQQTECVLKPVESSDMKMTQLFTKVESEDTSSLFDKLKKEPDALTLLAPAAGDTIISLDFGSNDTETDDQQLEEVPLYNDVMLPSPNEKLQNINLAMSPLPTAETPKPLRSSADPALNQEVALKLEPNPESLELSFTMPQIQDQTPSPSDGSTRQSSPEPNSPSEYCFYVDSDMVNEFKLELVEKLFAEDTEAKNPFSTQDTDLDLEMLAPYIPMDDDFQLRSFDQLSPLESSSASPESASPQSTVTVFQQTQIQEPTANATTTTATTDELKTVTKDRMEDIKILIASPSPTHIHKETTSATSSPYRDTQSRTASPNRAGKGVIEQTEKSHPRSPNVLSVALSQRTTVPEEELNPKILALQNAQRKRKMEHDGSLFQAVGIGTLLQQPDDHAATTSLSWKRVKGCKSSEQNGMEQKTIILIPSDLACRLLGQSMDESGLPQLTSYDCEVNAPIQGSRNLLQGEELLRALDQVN
# No constants are given. Whether binding was seen depends on the method and setting. In cells and extracts the contact can be indirect. These calls come from enrichment with a bait or labelling near it, and not all partners need be listed.
# Molecular target: Natriuretic peptide receptor A (human (endogenous in AGS)) (UniProt P16066)
# Test: affinity purification with mass spectrometry; IP from total protein of GC cells with primary antibody and protein A/G-agarose beads; immunoprecipitates analysed by MS
substance,measurement,value
Hypoxia-inducible factor-1 alpha (from UniProt Q16665 1-826),binding,binds
